Measured values published in patent US20030180744.

The chains behind the UniProt entries cited, without tags or fusion partners. Residues count along the entry.
UniProt P01137, 279-390: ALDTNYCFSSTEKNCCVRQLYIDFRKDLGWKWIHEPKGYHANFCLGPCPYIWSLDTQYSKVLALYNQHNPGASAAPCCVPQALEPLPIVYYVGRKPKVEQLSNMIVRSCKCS
UniProt P01127, 82-190: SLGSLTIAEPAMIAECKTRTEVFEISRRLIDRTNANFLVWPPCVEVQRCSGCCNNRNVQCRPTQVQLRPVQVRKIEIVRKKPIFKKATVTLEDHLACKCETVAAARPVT

Legend:
[1] = biological target: TGFβ1 (Homo sapiens) (UniProt P01137); assay: filter binding; details: 2'-NH2 pyrimidines, purified recombinant protein
[2] = biological target: PDGF-BB (Homo sapiens) (UniProt P01127); assay: competition with a labelled probe; details: 3'-3' idT; no effect on receptor binding or mitogenesis; purified recombinant protein; single-stranded DNA; dose not given here
[3] = biological target: T1, KGF (hKGF) (Homo sapiens) (UniProt P21781); assay: filter binding; details: 2'-F pyrimidines, purified recombinant protein, protein details: Upstate Biotechnology; for binding result: variant of 14F3'T
T1 sequence (looked up, limits assumed): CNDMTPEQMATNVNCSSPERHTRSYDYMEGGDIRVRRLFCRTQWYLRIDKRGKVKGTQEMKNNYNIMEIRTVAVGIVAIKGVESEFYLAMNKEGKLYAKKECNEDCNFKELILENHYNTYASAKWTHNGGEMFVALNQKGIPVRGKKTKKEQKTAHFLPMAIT

GGGGGAGAACGCGGAUCCGAGCAAUCCCAGGCGCAUAGCUUCCGAGUAGACAGGAGGGAGGGGUGGAUGUGGCGUCUACUCGGUGUCGUGAAGCUUCGCUCUAGAUCUCCCUUUAGUGAGGGUUA [lib3-13]
Kd ([1]; mean of 0.9, 0.7, 0.9, +/-0.11, 37 C, cell IC50 25 nM, protein details: Genentech, biotinylated version used in bead assay): 0.83 nM

CAGTCCGTGGTAGGGCAGGTTGGGGTGACTTCGTGGAAT [T39]
functional effect of the aptamer [2]: not active

GGGAGGACGAUGCGGUGGUCUCCCAAUUCUAAACUUUCUCCAUCGUAUC [14F3'T]
Kd ([3]; high affinity component, Kd2 10.2 nM, Balb/MK Ki 34 pM, label: 32P, variant of 14F): 0.0008 nM

GGGAGGACGAUGCGGUGGUCUCCCAAUUCUAAACUUUCUCCAUCGUA [T2]
binding result ([3]; high -, low +): binds more weakly

GGGAGGACGAUGCGGUGGUCUCCCAAUUCUAAACUCCAUCGUAUC [T6]
binding result ([3]; high ±, low +): binds more weakly

GGGGGAGAACGCGGAUCCUGCUAGACCGAGGAUGCAAAGGGACAUGCAUUAGGGAAACCUAUGUAUAAGAACGCGGUCGCAGAAGCUUCGCUCUAGAUCUCCCUUUAGUGAGGGUUA [lib1-20-3 (2'-NH2)]
binding result ([1]; did not bind with 2'-NH2 pyrimidines, protein details: Genentech or R&D Systems, variant of lib1-20-3): no binding

GGGAGGCGAUGCGGUGGUCUCCCAAUUCUAUUCUCCAUCGUAUC [T16]
binding result ([3]; high -, low ±): binds more weakly

GAGGACGAUGCGGUGGUCUCCCAAUUCUAAACUUUCUCCAUCGUAUC [T8]
binding result ([3]; high -, low +): binds more weakly

For some assays here: No signal at the amounts used counts as a negative. For some assays here: The comparison behind a weaker result is the experiment's own reference, which may not be listed here. For some assays here: Protein sequences can lack the tags named with them. For some assays here: The exact form of at least one protein or probe is not confirmed.
